# Results reported in the supplement of paper PMC4604168 (melanoma cell lines).
# Some of the results follow. Single values are uncertain, as repeats are few or missing.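 The apoptosis fraction was the count of cleaved-PARP antibody-stained nuclei relative to all DNA-stained nuclei, imaged in 1,536-well plates. Screening doses were set so most cells survived, and baseline and induced cleaved-PARP levels vary greatly across cell lines.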
# Columns and labels:
# Assay in all cases: cleaved PARP positive nuclei fraction relative to DMSO control; melanoma cells; higher = more apoptosis
# Conditions in all cases: library dose: low library concentration; 72 h
# 501Mel = test system: 501Mel
# A101D = test system: A101D
# A2058 = test system: A2058
# A375 = test system: A375
# C32 = test system: C32
# CBRC008 = test system: CBRC008 (line from a melanoma biopsy)
# CBRC013 = test system: CBRC013 (line from a melanoma biopsy)
# CBRC014 = test system: CBRC014 (line from a melanoma biopsy)
# CBRC016 = test system: CBRC016 (line from a melanoma biopsy)
# CBRC017 = test system: CBRC017 (line from a melanoma biopsy)
# COLO792 = test system: COLO792
# COLO800 = test system: COLO800
# COLO829 = test system: COLO829
# G361 = test system: G361
# IPC-298 = test system: IPC-298
# IST-MEL1 = test system: IST-MEL1
# LB2518-MEL = test system: LB2518-MEL
# LOXIMVI = test system: LOXIMVI
# MEL-HO = test system: MEL-HO
compound,measurement,setting,value
"CCCCCCCCc1ccc(CCC(N)(CO)CO)cc1 [fingolimod] + CN(C)S(=O)(=O)c1ccc2c(c1)/C(=C/c1cc3c([nH]1)CCCC3)C(=O)N2 [SU6656] (first compound 2 µM, partner dose 0.4 µM)",cleaved PARP positive nuclei fraction,501Mel,137%
same,cleaved PARP positive nuclei fraction,A101D,174%
same,cleaved PARP positive nuclei fraction,A2058,95.1%
same,cleaved PARP positive nuclei fraction,A375,216%
same,cleaved PARP positive nuclei fraction,C32,62.3%
same,cleaved PARP positive nuclei fraction,CBRC008,56.4%
same,cleaved PARP positive nuclei fraction,CBRC013,111%
same,cleaved PARP positive nuclei fraction,CBRC014,903%
same,cleaved PARP positive nuclei fraction,CBRC016,35.4%
same,cleaved PARP positive nuclei fraction,CBRC017,1370%
same,cleaved PARP positive nuclei fraction,COLO792,112%
same,cleaved PARP positive nuclei fraction,COLO800,109%
same,cleaved PARP positive nuclei fraction,COLO829,133%
same,cleaved PARP positive nuclei fraction,G361,68.4%
same,cleaved PARP positive nuclei fraction,IPC-298,41.1%
same,cleaved PARP positive nuclei fraction,IST-MEL1,186%
same,cleaved PARP positive nuclei fraction,LB2518-MEL,106%
same,cleaved PARP positive nuclei fraction,LOXIMVI,84.7%
same,cleaved PARP positive nuclei fraction,MEL-HO,38.8%
"CCCCCCCCc1ccc(CCC(N)(CO)CO)cc1 [fingolimod] + Cc1cc(N2CCOCC2)cc2[nH]c(-c3c(NC[C@@H](O)c4cccc(Cl)c4)cc[nH]c3=O)nc12 [BMS536924] (first compound 2 µM, partner dose 0.2 µM)",cleaved PARP positive nuclei fraction,501Mel,594%
same,cleaved PARP positive nuclei fraction,A101D,296%
same,cleaved PARP positive nuclei fraction,A2058,96.2%
same,cleaved PARP positive nuclei fraction,A375,201%
same,cleaved PARP positive nuclei fraction,C32,193%
same,cleaved PARP positive nuclei fraction,CBRC008,124%
same,cleaved PARP positive nuclei fraction,CBRC013,129%
same,cleaved PARP positive nuclei fraction,CBRC014,72.7%
same,cleaved PARP positive nuclei fraction,CBRC016,46.8%
same,cleaved PARP positive nuclei fraction,CBRC017,121%
same,cleaved PARP positive nuclei fraction,COLO792,291%
same,cleaved PARP positive nuclei fraction,COLO800,363%
same,cleaved PARP positive nuclei fraction,COLO829,85.7%
same,cleaved PARP positive nuclei fraction,G361,97.4%
same,cleaved PARP positive nuclei fraction,IPC-298,94.8%
same,cleaved PARP positive nuclei fraction,IST-MEL1,100%
same,cleaved PARP positive nuclei fraction,LB2518-MEL,94.9%
same,cleaved PARP positive nuclei fraction,LOXIMVI,80.3%
same,cleaved PARP positive nuclei fraction,MEL-HO,167%
"CC(=O)O[C@@]12CO[C@@H]1C[C@H](O)[C@@]1(C)C(=O)[C@H](O)C3=C(C)[C@@H](OC(=O)[C@H](O)[C@@H](NC(=O)OC(C)(C)C)c4ccccc4)C[C@@](O)([C@@H](OC(=O)c4ccccc4)[C@H]21)C3(C)C [Docetaxel] + NCC(=O)Nc1ccc(-n2nc(C(F)(F)F)cc2-c2ccc3c(ccc4ccccc43)c2)cc1 [OSU03012] (first compound 0.0001 µM, partner dose 1 µM)",cleaved PARP positive nuclei fraction,501Mel,389%
same,cleaved PARP positive nuclei fraction,A101D,121%
same,cleaved PARP positive nuclei fraction,A2058,4920%
same,cleaved PARP positive nuclei fraction,A375,6310%
same,cleaved PARP positive nuclei fraction,C32,571%
same,cleaved PARP positive nuclei fraction,CBRC008,379%
same,cleaved PARP positive nuclei fraction,CBRC013,124%
same,cleaved PARP positive nuclei fraction,CBRC014,143%
same,cleaved PARP positive nuclei fraction,CBRC016,107%
same,cleaved PARP positive nuclei fraction,CBRC017,166%
same,cleaved PARP positive nuclei fraction,COLO792,1100%
same,cleaved PARP positive nuclei fraction,COLO800,245%
same,cleaved PARP positive nuclei fraction,COLO829,183%
same,cleaved PARP positive nuclei fraction,G361,292%
same,cleaved PARP positive nuclei fraction,IPC-298,128%
same,cleaved PARP positive nuclei fraction,IST-MEL1,139%
same,cleaved PARP positive nuclei fraction,LB2518-MEL,139%
same,cleaved PARP positive nuclei fraction,LOXIMVI,196%
same,cleaved PARP positive nuclei fraction,MEL-HO,105%
"CN(c1ncccc1CNc1nc(Nc2ccc3c(c2)CC(=O)N3)ncc1C(F)(F)F)S(C)(=O)=O + NCC(=O)Nc1ccc(-n2nc(C(F)(F)F)cc2-c2ccc3c(ccc4ccccc43)c2)cc1 [OSU03012] (first compound 0.08 µM, partner dose 1 µM)",cleaved PARP positive nuclei fraction,501Mel,194%
same,cleaved PARP positive nuclei fraction,A101D,90.9%
same,cleaved PARP positive nuclei fraction,A2058,357%
same,cleaved PARP positive nuclei fraction,A375,1030%
same,cleaved PARP positive nuclei fraction,C32,79.5%
same,cleaved PARP positive nuclei fraction,CBRC008,231%
same,cleaved PARP positive nuclei fraction,CBRC013,135%
same,cleaved PARP positive nuclei fraction,CBRC014,111%
same,cleaved PARP positive nuclei fraction,CBRC016,160%
same,cleaved PARP positive nuclei fraction,CBRC017,87.5%
same,cleaved PARP positive nuclei fraction,COLO792,97.7%
same,cleaved PARP positive nuclei fraction,COLO800,186%
same,cleaved PARP positive nuclei fraction,COLO829,140%
same,cleaved PARP positive nuclei fraction,G361,84.9%
same,cleaved PARP positive nuclei fraction,IPC-298,69.9%
same,cleaved PARP positive nuclei fraction,IST-MEL1,106%
same,cleaved PARP positive nuclei fraction,LB2518-MEL,105%
same,cleaved PARP positive nuclei fraction,LOXIMVI,206%
same,cleaved PARP positive nuclei fraction,MEL-HO,43.4%
"NC(=O)c1ccc(N(C(N)=O)c2c(F)cccc2F)nc1-c1ccc(F)cc1F + C=CCn1c(=O)c2cnc(Nc3ccc(N4CCN(C)CC4)cc3)nc2n1-c1cccc(C(C)(C)O)n1 [MK1775] (first compound 0.4 µM, partner dose 0.02 µM)",cleaved PARP positive nuclei fraction,501Mel,85.4%
same,cleaved PARP positive nuclei fraction,A101D,157%
same,cleaved PARP positive nuclei fraction,A2058,49.5%
same,cleaved PARP positive nuclei fraction,A375,501%
same,cleaved PARP positive nuclei fraction,C32,99%
same,cleaved PARP positive nuclei fraction,CBRC008,69.5%
same,cleaved PARP positive nuclei fraction,CBRC013,53.9%
same,cleaved PARP positive nuclei fraction,CBRC014,91.7%
same,cleaved PARP positive nuclei fraction,CBRC016,113%
same,cleaved PARP positive nuclei fraction,CBRC017,154%
same,cleaved PARP positive nuclei fraction,COLO792,48.9%
same,cleaved PARP positive nuclei fraction,COLO800,107%
same,cleaved PARP positive nuclei fraction,COLO829,107%
same,cleaved PARP positive nuclei fraction,G361,93.9%
same,cleaved PARP positive nuclei fraction,IPC-298,48.5%
same,cleaved PARP positive nuclei fraction,IST-MEL1,162%
same,cleaved PARP positive nuclei fraction,LB2518-MEL,112%
same,cleaved PARP positive nuclei fraction,LOXIMVI,49.2%
same,cleaved PARP positive nuclei fraction,MEL-HO,66.9%
"C[C@]1(O)C[C@@H](c2nc(-c3ccc4ccc(-c5ccccc5)nc4c3)c3c(N)nccn32)C1 + Cn1cncc1[C@@](N)(c1ccc(Cl)cc1)c1ccc2c(c1)c(-c1cccc(Cl)c1)cc(=O)n2C [tipifarnib] (first compound 0.4 µM, partner dose 0.01 µM)",cleaved PARP positive nuclei fraction,501Mel,245%
same,cleaved PARP positive nuclei fraction,A101D,91.3%
same,cleaved PARP positive nuclei fraction,A2058,42.2%
same,cleaved PARP positive nuclei fraction,A375,363%
same,cleaved PARP positive nuclei fraction,C32,78.9%
same,cleaved PARP positive nuclei fraction,CBRC008,57.1%
same,cleaved PARP positive nuclei fraction,CBRC013,158%
same,cleaved PARP positive nuclei fraction,CBRC014,133%
same,cleaved PARP positive nuclei fraction,CBRC016,38.8%
same,cleaved PARP positive nuclei fraction,CBRC017,81.6%
same,cleaved PARP positive nuclei fraction,COLO792,83.4%
same,cleaved PARP positive nuclei fraction,COLO800,181%
same,cleaved PARP positive nuclei fraction,COLO829,101%
same,cleaved PARP positive nuclei fraction,G361,115%
same,cleaved PARP positive nuclei fraction,IPC-298,170%
same,cleaved PARP positive nuclei fraction,IST-MEL1,443%
same,cleaved PARP positive nuclei fraction,LB2518-MEL,32.4%
same,cleaved PARP positive nuclei fraction,LOXIMVI,106%
same,cleaved PARP positive nuclei fraction,MEL-HO,41.5%
"CN(c1ncccc1CNc1nc(Nc2ccc3c(c2)CC(=O)N3)ncc1C(F)(F)F)S(C)(=O)=O + Cc1cc(N2CCOCC2)cc2[nH]c(-c3c(NC[C@@H](O)c4cccc(Cl)c4)cc[nH]c3=O)nc12 [BMS536924] (first compound 0.08 µM, partner dose 0.2 µM)",cleaved PARP positive nuclei fraction,501Mel,98%
same,cleaved PARP positive nuclei fraction,A101D,85.3%
same,cleaved PARP positive nuclei fraction,A2058,49.1%
same,cleaved PARP positive nuclei fraction,A375,203%
same,cleaved PARP positive nuclei fraction,C32,150%
same,cleaved PARP positive nuclei fraction,CBRC008,171%
same,cleaved PARP positive nuclei fraction,CBRC013,186%
same,cleaved PARP positive nuclei fraction,CBRC014,181%
same,cleaved PARP positive nuclei fraction,CBRC016,35.1%
same,cleaved PARP positive nuclei fraction,CBRC017,96.8%
same,cleaved PARP positive nuclei fraction,COLO792,107%
same,cleaved PARP positive nuclei fraction,COLO800,142%
same,cleaved PARP positive nuclei fraction,COLO829,118%
same,cleaved PARP positive nuclei fraction,G361,117%
same,cleaved PARP positive nuclei fraction,IPC-298,93.1%
same,cleaved PARP positive nuclei fraction,IST-MEL1,163%
same,cleaved PARP positive nuclei fraction,LB2518-MEL,87.7%
same,cleaved PARP positive nuclei fraction,LOXIMVI,139%
same,cleaved PARP positive nuclei fraction,MEL-HO,212%
"C[C@@H](N)c1ccc(C(=O)Nc2ccnc3[nH]ccc23)cc1 + CN(NC(=O)CC(=O)NN(C)C(=S)c1ccccc1)C(=S)c1ccccc1 [STA4783] (first compound 0.4 µM, partner dose 0.006 µM)",cleaved PARP positive nuclei fraction,501Mel,145%
same,cleaved PARP positive nuclei fraction,A101D,275%
same,cleaved PARP positive nuclei fraction,A2058,235%
same,cleaved PARP positive nuclei fraction,A375,7150%
same,cleaved PARP positive nuclei fraction,C32,265%
same,cleaved PARP positive nuclei fraction,CBRC008,3920%
same,cleaved PARP positive nuclei fraction,CBRC013,171%
same,cleaved PARP positive nuclei fraction,CBRC014,689%
same,cleaved PARP positive nuclei fraction,CBRC016,705%
same,cleaved PARP positive nuclei fraction,CBRC017,321%
same,cleaved PARP positive nuclei fraction,COLO792,233%
same,cleaved PARP positive nuclei fraction,COLO800,16.7%
same,cleaved PARP positive nuclei fraction,COLO829,132%
same,cleaved PARP positive nuclei fraction,G361,114%
same,cleaved PARP positive nuclei fraction,IPC-298,166%
same,cleaved PARP positive nuclei fraction,IST-MEL1,483%
same,cleaved PARP positive nuclei fraction,LB2518-MEL,196%
same,cleaved PARP positive nuclei fraction,LOXIMVI,107%
same,cleaved PARP positive nuclei fraction,MEL-HO,96.1%

# Random excerpt: 3 entries already listed.
compound,measurement,setting,value
"CC(=O)O[C@@]12CO[C@@H]1C[C@H](O)[C@@]1(C)C(=O)[C@H](O)C3=C(C)[C@@H](OC(=O)[C@H](O)[C@@H](NC(=O)OC(C)(C)C)c4ccccc4)C[C@@](O)([C@@H](OC(=O)c4ccccc4)[C@H]21)C3(C)C [Docetaxel] + NCC(=O)Nc1ccc(-n2nc(C(F)(F)F)cc2-c2ccc3c(ccc4ccccc43)c2)cc1 [OSU03012] (first compound 0.0001 µM, partner dose 1 µM)",cleaved PARP positive nuclei fraction,A375,6310%
"C[C@]1(O)C[C@@H](c2nc(-c3ccc4ccc(-c5ccccc5)nc4c3)c3c(N)nccn32)C1 + Cn1cncc1[C@@](N)(c1ccc(Cl)cc1)c1ccc2c(c1)c(-c1cccc(Cl)c1)cc(=O)n2C [tipifarnib] (first compound 0.4 µM, partner dose 0.01 µM)",cleaved PARP positive nuclei fraction,CBRC016,38.8%
"CN(c1ncccc1CNc1nc(Nc2ccc3c(c2)CC(=O)N3)ncc1C(F)(F)F)S(C)(=O)=O + NCC(=O)Nc1ccc(-n2nc(C(F)(F)F)cc2-c2ccc3c(ccc4ccccc43)c2)cc1 [OSU03012] (first compound 0.08 µM, partner dose 1 µM)",cleaved PARP positive nuclei fraction,COLO829,140%
